Laboratory results as given in PMC5084709.
These are yes or no findings as the source states them, for the method shown. In cells and extracts the contact can be indirect.

Molecular target: T1, RPTP69d full length (Drosophila) (UniProt P16620)
T1 sequence: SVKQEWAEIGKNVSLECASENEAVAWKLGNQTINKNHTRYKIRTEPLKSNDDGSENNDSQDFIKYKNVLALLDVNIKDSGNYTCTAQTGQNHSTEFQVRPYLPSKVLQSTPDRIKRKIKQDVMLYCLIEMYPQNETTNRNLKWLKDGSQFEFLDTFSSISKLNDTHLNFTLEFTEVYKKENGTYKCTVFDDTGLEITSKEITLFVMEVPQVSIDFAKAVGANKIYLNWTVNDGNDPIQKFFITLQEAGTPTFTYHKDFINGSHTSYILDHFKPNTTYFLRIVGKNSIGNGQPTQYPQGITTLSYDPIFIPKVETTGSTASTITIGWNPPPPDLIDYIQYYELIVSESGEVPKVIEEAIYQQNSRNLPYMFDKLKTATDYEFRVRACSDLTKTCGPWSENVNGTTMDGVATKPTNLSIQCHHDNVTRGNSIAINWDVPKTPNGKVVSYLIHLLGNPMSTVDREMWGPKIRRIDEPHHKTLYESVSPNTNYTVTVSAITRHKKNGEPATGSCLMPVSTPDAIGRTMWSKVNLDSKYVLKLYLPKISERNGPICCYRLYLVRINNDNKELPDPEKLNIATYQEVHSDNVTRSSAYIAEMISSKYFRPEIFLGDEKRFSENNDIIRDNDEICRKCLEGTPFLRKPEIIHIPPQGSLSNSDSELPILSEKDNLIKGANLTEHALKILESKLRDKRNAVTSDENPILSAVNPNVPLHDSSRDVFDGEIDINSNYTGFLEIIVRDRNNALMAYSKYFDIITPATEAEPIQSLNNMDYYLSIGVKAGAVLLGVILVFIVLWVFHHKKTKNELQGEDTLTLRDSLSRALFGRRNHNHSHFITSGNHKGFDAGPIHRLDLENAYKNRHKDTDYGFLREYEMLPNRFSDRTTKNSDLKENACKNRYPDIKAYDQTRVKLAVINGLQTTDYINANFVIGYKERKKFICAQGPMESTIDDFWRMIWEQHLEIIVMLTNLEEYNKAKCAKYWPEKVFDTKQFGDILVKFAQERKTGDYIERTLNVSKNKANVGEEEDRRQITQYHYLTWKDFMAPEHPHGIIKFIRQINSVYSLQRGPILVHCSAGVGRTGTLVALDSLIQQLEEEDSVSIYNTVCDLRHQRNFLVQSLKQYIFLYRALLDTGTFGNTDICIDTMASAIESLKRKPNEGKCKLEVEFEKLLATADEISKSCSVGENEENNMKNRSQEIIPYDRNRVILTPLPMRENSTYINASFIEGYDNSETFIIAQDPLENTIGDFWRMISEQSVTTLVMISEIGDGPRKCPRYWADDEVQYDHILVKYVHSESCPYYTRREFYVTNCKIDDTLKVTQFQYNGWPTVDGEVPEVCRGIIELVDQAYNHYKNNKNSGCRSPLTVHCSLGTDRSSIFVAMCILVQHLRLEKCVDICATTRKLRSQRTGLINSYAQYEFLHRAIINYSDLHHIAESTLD
Assay: co-IP; immunoprecipitation of RPTP69d from S2 cells in the presence of Slit, without Robo3

- binding: no binding
B1: Slit (ligand, UniProt P24014 37-1504)
chain: EPYSGGFGSSAVSSGGLGSVGIHIPGGGVGVITEARCPRVCSCTGLNVDCSHRGLTSVPRKISADVERLELQGNNLTVIYETDFQRLTKLRMLQLTDNQIHTIERNSFQDLVSLERLRLNNNRLKAIPENFVTSSASLLRLDISNNVITTVGRRVFKGAQSLRSLQLDNNQITCLDEHAFKGLVELEILTLNNNNLTSLPHNIFGGLGRLRALRLSDNPFACDCHLSWLSRFLRSATRLAPYTRCQSPSQLKGQNVADLHDQEFKCSGLTEHAPMECGAENSCPHPCRCADGIVDCREKSLTSVPVTLPDDTTELRLEQNFITELPPKSFSSFRRLRRIDLSNNNISRIAHDALSGLKQLTTLVLYGNKIKDLPSGVFKGLGSLQLLLLNANEISCIRKDAFRDLHSLSLLSLYDNNIQSLANGTFDAMKSIKTVHLAKNPFICDCNLRWLADYLHKNPIETSGARCESPKRMHRRRIESLREEKFKCSWDELRMKLSGECRMDSDCPAMCHCEGTTVDCTGRGLKEIPRDIPLHTTELLLNDNELGRISSDGLFGRLPHLVKLELKRNQLTGIEPNAFEGASHIQELQLGENKIKEISNKMFLGLHQLKTLNLYDNQISCVMPGSFEHLNSLTSLNLASNPFNCNCHLAWFAEWLRKKSLNGGAARCGAPSKVRDVQIKDLPHSEFKCSSENSEGCLGDGYCPPSCTCTGTVVRCSRNQLKEIPRGIPAETSELYLESNEIEQIHYERIRHLRSLTRLDLSNNQITILSNYTFANLTKLSTLIISYNKLQCLQRHALSGLNNLRVLSLHGNRISMLPEGSFEDLKSLTHIALGSNPLYCDCGLKWFSDWIKLDYVEPGIARCAEPEQMKDKLILSTPSSSFVCRGRVRNDILAKCNACFEQPCQNQAQCVALPQREYQCLCQPGYHGKHCEFMIDACYGNPCRNNATCTVLEEGRFSCQCAPGYTGARCETNIDDCLGEIKCQNNATCIDGVESYKCECQPGFSGEFCDTKIQFCSPEFNPCANGAKCMDHFTHYSCDCQAGFHGTNCTDNIDDCQNHMCQNGGTCVDGINDYQCRCPDDYTGKYCEGHNMISMMYPQTSPCQNHECKHGVCFQPNAQGSDYLCRCHPGYTGKWCEYLTSISFVHNNSFVELEPLRTRPEANVTIVFSSAEQNGILMYDGQDAHLAVELFNGRIRVSYDVGNHPVSTMYSFEMVADGKYHAVELLAIKKNFTLRVDRGLARSIINEGSNDYLKLTTPMFLGGLPVDPAQQAYKNWQIRNLTSFKGCMKEVWINHKLVDFGNAQRQQKITPGCALLEGEQQEEEDDEQDFMDETPHIKEEPVDPCLENKCRRGSRCVPNSNARDGYQCKCKHGQRGRYCDQGEGSTEPPTVTAASTCRKEQVREYYTENDCRSRQPLKYAKCVGGCGNQCCAAKIVRRRKVRMVCSNNRKYIKNLDIVRKCGCTKKCY
